The supplement of paper PMC10060354, “Discovery of a small molecule ligand of FRS2 that inhibits invasion and tumor growth” (Cellular Oncology, 2022)
Repeats are few or missing, and single values can be far off.

The chains behind the UniProt entries cited, without tags or fusion partners. Where a name states a change or a piece, a line headed by the entry shows the natural chain unless it says otherwise.
UniProt Q8TAE6: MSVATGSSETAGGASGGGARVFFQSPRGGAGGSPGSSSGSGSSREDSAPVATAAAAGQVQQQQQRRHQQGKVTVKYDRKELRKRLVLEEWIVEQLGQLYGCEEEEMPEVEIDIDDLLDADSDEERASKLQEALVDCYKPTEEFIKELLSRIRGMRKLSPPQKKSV
UniProt Q8TCD1: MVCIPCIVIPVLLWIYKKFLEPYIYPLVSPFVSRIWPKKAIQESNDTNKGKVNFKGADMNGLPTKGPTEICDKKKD
UniProt Q8ND56: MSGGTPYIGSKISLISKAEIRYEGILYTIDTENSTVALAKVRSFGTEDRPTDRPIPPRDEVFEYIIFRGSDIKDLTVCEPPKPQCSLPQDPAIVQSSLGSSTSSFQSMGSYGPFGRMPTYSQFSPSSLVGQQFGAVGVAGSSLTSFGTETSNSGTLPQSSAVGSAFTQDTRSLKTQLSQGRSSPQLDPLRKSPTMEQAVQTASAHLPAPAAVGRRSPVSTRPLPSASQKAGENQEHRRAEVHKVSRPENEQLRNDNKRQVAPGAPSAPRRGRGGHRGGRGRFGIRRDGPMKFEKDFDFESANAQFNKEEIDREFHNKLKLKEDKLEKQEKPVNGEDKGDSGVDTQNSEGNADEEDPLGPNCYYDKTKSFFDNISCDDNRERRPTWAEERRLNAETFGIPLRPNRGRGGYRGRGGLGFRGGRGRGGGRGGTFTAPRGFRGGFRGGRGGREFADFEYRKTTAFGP
UniProt E9PQ53, whole entry: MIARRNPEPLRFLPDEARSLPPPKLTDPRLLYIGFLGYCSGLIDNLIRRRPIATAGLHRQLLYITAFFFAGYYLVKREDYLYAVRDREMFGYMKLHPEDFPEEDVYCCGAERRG
UniProt Q13098: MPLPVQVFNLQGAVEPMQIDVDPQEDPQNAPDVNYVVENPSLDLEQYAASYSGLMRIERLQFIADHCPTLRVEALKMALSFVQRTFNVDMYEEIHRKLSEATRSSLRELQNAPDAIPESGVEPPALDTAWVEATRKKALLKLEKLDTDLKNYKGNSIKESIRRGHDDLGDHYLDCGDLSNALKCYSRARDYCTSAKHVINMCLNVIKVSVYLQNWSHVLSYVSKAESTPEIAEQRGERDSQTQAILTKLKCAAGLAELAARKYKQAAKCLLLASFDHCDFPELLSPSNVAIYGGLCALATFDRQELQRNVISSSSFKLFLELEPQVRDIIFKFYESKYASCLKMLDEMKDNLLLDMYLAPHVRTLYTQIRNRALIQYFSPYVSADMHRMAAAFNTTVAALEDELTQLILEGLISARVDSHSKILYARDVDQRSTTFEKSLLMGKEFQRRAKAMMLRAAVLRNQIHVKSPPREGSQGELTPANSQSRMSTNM
UniProt Q92968: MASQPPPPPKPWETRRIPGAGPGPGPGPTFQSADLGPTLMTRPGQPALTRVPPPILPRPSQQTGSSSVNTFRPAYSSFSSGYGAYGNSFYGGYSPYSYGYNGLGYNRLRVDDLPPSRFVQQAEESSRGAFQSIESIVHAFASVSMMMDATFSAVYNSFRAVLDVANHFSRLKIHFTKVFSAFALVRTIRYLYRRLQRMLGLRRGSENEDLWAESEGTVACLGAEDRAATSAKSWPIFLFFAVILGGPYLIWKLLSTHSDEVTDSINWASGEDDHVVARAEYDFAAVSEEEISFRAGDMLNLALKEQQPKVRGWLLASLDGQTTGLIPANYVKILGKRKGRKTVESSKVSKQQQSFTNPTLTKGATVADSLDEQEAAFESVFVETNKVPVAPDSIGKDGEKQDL
UniProt Q9H7F4: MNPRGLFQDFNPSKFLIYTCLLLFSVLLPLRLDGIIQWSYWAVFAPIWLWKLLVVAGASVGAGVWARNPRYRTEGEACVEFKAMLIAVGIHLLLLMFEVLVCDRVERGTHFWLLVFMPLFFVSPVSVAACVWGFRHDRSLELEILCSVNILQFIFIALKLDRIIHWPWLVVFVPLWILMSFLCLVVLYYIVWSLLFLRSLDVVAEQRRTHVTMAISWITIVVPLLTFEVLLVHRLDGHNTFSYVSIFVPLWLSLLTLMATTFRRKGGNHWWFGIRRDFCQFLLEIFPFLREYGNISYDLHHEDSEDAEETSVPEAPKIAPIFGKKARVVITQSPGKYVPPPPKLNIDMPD
UniProt Q96EX1: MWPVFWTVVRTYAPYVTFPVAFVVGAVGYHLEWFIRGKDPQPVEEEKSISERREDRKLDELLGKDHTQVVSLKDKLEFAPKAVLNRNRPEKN
UniProt Q14145, whole entry: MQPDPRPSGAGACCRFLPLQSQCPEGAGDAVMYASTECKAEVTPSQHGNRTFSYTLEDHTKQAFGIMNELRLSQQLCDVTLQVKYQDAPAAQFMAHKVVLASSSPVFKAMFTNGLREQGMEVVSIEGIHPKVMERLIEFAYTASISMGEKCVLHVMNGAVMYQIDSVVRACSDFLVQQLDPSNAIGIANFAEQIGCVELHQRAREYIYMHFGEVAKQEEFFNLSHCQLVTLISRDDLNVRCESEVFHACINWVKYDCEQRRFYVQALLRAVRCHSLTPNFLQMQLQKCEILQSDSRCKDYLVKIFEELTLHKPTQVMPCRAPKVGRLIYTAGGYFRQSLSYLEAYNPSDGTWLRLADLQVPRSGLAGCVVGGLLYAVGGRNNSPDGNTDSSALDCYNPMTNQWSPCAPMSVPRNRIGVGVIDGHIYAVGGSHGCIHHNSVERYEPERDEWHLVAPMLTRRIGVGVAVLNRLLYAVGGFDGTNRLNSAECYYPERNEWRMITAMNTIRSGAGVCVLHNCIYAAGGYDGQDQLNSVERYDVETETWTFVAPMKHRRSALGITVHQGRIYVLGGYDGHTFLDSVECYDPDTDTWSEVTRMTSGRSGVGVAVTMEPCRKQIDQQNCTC
UniProt Q9H4I9: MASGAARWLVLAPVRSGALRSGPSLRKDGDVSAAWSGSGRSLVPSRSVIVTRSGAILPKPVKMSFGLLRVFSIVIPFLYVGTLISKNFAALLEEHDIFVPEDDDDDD
UniProt Q96S55: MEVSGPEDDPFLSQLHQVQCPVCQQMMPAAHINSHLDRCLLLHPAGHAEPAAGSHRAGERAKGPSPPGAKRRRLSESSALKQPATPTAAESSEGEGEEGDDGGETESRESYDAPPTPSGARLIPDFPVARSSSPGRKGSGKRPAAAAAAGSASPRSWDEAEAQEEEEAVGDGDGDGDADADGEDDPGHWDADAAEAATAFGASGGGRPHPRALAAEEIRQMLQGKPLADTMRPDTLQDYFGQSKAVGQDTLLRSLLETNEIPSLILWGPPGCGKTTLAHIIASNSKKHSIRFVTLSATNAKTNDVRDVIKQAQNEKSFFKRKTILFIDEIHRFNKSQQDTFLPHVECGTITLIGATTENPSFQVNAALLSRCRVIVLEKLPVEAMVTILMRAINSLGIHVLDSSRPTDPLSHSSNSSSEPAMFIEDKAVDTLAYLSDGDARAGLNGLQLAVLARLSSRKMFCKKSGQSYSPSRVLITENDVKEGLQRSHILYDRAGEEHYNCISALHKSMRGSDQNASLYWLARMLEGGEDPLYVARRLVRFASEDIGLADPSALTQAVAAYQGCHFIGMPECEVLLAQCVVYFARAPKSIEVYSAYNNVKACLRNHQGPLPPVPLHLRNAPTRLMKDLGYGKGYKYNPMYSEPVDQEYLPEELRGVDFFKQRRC
UniProt Q7Z2Y5: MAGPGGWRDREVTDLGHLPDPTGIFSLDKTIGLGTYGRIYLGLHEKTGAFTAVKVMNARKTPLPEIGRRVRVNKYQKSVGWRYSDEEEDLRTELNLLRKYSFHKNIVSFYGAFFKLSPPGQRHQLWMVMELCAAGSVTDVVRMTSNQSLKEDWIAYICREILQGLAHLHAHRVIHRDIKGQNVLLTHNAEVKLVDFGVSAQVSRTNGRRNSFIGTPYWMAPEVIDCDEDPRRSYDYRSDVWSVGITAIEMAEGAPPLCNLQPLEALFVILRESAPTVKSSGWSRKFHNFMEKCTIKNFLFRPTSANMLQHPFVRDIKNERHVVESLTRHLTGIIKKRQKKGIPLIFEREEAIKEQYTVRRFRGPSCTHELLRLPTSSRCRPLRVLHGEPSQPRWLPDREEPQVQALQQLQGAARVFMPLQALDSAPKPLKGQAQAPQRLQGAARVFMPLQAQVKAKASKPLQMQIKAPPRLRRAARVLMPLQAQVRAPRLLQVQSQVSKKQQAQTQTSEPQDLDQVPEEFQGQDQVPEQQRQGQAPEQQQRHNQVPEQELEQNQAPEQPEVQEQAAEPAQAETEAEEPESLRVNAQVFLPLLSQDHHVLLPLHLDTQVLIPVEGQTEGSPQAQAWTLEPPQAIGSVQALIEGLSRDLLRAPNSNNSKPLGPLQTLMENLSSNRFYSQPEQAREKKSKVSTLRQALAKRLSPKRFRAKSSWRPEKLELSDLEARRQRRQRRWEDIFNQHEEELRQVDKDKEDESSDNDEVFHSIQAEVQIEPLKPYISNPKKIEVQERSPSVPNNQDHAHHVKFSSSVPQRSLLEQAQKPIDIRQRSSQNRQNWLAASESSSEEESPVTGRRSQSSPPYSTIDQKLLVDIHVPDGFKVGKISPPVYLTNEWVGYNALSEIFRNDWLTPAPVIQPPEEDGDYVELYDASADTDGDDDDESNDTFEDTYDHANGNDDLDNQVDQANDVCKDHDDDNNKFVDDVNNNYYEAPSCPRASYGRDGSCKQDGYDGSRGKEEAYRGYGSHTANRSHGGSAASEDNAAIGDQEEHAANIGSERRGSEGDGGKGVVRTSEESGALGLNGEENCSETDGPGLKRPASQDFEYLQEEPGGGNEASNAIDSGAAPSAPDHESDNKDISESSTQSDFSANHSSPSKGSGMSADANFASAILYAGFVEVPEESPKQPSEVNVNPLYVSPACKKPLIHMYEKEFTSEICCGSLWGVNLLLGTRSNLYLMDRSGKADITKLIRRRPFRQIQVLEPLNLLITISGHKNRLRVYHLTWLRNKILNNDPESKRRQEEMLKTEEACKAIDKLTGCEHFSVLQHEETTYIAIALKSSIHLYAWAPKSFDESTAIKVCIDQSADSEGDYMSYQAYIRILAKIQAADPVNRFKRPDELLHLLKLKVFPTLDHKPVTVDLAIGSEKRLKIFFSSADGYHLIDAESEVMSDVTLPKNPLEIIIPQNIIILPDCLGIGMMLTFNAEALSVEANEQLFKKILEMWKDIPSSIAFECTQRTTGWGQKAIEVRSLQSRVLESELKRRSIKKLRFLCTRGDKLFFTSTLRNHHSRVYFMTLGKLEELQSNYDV
UniProt P21589, whole entry: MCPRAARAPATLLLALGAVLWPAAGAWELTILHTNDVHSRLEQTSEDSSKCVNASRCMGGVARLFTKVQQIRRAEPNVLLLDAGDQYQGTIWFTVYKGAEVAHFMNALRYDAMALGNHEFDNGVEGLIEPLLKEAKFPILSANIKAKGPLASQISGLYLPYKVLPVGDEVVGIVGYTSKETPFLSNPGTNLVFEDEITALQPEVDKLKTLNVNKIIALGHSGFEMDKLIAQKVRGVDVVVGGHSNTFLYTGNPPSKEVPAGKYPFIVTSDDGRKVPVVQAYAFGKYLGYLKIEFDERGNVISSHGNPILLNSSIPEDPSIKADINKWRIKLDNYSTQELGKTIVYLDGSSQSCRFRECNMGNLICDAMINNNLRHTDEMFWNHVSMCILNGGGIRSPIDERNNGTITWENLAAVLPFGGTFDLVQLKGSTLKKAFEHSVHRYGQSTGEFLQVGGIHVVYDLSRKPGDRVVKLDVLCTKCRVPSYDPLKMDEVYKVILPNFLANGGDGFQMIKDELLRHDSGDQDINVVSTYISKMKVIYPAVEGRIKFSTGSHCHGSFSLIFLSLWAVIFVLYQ
UniProt Q9P016: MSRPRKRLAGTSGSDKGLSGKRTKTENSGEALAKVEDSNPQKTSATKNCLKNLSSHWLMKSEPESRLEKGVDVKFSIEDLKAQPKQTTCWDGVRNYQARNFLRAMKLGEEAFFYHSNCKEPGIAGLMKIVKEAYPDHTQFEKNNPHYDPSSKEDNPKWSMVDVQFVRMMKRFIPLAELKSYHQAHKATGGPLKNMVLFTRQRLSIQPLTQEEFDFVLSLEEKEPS
UniProt P10301: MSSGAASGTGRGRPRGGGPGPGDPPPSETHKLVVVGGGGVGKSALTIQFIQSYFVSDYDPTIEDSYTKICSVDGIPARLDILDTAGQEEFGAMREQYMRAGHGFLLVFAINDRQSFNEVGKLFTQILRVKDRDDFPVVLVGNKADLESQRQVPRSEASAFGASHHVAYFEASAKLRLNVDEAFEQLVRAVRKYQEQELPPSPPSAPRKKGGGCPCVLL
UniProt Q8NBX0: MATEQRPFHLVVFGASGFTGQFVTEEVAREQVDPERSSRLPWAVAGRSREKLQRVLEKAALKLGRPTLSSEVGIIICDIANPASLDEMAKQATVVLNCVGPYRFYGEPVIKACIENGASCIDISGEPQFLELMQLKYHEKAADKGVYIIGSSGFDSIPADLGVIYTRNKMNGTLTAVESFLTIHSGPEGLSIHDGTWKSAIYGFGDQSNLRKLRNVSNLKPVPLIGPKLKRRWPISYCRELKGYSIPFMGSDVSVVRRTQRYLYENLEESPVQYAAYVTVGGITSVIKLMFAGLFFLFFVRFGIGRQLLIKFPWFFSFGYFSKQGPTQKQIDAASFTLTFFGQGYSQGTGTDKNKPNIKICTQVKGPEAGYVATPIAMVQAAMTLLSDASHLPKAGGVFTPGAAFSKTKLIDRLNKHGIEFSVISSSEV

Compound: [O-][N+](C(C1=C(C(O)=C2)NC(C(C=C3)=CC=C3Cl)C4C1C=CC4)=C2Cl)=O
Test: melting temperature shift (compound 7 minus DMSO); higher = compound stabilises the protein
Details: 10 µM
Method: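 Thermal proteome profiling (TMT mass spectrometry) in intact DAOY medulloblastoma cells or DAOY lysates treated with 10 µM compound 7 or DMSO, heated at 10 temperatures from 40.5 to 73.8 °C for 3 min. Melting curves were fitted with the Bioconductor TPP package, and the melting point difference between compound and vehicle is reported per protein (single curve per condition).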

[1] = system: DAOY cell lysate, treatment time: 20 min, 4 °C
[2] = system: intact DAOY cells, treatment time: 90 min, 37 °C

Target | melting temperature shift [1] | melting temperature shift [2]
PSMD10 (UniProt O75832) | -0.834 °C | -0.0186 °C
GAR1 (UniProt Q9NY12) | 0.88 °C | 0.448 °C
UniProt Q8TAE6 | -4.55 °C | 0.554 °C
GARS (UniProt P41250) | -0.326 °C | 0.795 °C
UniProt Q8TCD1 | -3.22 °C | 
LSM14A (UniProt Q8ND56) | 0.257 °C | -0.069 °C
PGK1 (UniProt P00558) | -0.277 °C | -0.475 °C
RPLP0 (UniProt P05388) | -0.451 °C | 1.33 °C
RABGGTB (UniProt P53611) | -0.842 °C | 1.11 °C
NDUFS2 (UniProt O75306) | 0.689 °C | 0.223 °C
DBNL (UniProt Q9UJU6) | -1.18 °C | -0.325 °C
UniProt E9PQ53 |  | -2.26 °C
RMND1 (UniProt Q9NWS8) | 0.322 °C | -0.918 °C
GPS1 (UniProt Q13098) | -0.848 °C | 0.0406 °C
GNA13 (UniProt Q14344) | 0.558 °C | 
EHD2 (UniProt Q9NZN4) | -1.25 °C | -2.46 °C
BUB3 (UniProt O43684) | -0.161 °C | 0.19 °C
ARL8B (UniProt Q9NVJ2) | 1.1 °C | -0.659 °C
PEX13 (UniProt Q92968) | 0.434 °C | -0.935 °C
UniProt Q8N4F7 |  | -0.598 °C
UniProt Q8WXX0 | 0.333 °C | 

Target | melting temperature shift [1] | melting temperature shift [2]
UniProt Q9NZU5 | -0.0503 °C | 0.58 °C
PCBP2 (UniProt Q15366) | 0.453 °C | -0.698 °C
SLC7A1 (UniProt P30825) | 5.51 °C | -1.03 °C
UniProt P63218 | 1.19 °C | 2.1 °C
UniProt Q9H7F4 | 2.44 °C | 
SAFB (UniProt Q15424) | 1.11 °C | -0.108 °C
UniProt Q02388 | -1.58 °C | -2.72 °C
SMIM12 (UniProt Q96EX1) | 3.03 °C | -1.6 °C
UniProt Q96NB2 | 0.841 °C | 
EXOC1 (UniProt Q9NV70) | -1.16 °C | -0.0174 °C
RUVBL1 (UniProt Q9Y265) | -0.858 °C | -0.678 °C
ANKRD13A (UniProt Q8IZ07) | -0.188 °C | 0.341 °C
UniProt P06493 | -0.135 °C | -0.182 °C
SLC1A5 (UniProt Q15758) | 4.36 °C | 
SLC4A7 (UniProt Q9Y6M7) | 1.57 °C | 1.49 °C
MYLK (UniProt Q15746) | -0.68 °C | 0.783 °C
KEAP1 (UniProt Q14145) | -0.395 °C | -0.648 °C
UniProt Q9BXV9 |  | 2.01 °C
COQ3 (UniProt Q9NZJ6) | 0.749 °C | -0.348 °C
UniProt Q9H4I9 | -2.67 °C | 
HSP90B1 (UniProt P14625) | 1.13 °C | 0.309 °C

Looked up above:
melting temperature shift [1], SLC1A5 (UniProt Q15758) reads 4.36 °C
melting temperature shift [1], HSP90B1 (UniProt P14625) reads 1.13 °C
melting temperature shift [2], EXOC1 (UniProt Q9NV70) reads -0.0174 °C

Continued:

Target | melting temperature shift [1] | melting temperature shift [2]
FAM234A (UniProt Q9H0X4) | 2.15 °C | -4.11 °C
MSH6 (UniProt P52701) | -1.61 °C | -0.831 °C
PPIB (UniProt P23284) | 0.736 °C | 0.339 °C
CDK5RAP1 (UniProt Q96SZ6) | -1.89 °C | 1.82 °C
MLLT1 (UniProt Q03111) | 1.21 °C | 1.73 °C
UBA3 (UniProt Q8TBC4) | -0.189 °C | -0.33 °C
CAPRIN1 (UniProt Q14444) | -2.63 °C | 1.44 °C
UniProt Q53ET0 | -0.605 °C | 2.9 °C
RPS20 (UniProt P60866) | 1.09 °C | -0.492 °C
ANXA3 (UniProt P12429) | -0.147 °C | 0.0125 °C
MCAM (UniProt P43121) | 2.48 °C | 
WRNIP1 (UniProt Q96S55) | -1.76 °C | -3.34 °C
NUFIP2 (UniProt Q7Z417) | -0.146 °C | 0.929 °C
EIF3I (UniProt Q13347) | -1.19 °C | -0.0835 °C
RPE (UniProt Q96AT9) | 1.25 °C | 
NDUFAF2 (UniProt Q8N183) | 1.75 °C | 
GCAT (UniProt O75600) | 0.941 °C | -0.135 °C
UniProt Q7Z2Y5 | 2.8 °C | 0.991 °C
NDUFAF7 (UniProt Q7L592) |  | -2.35 °C
UniProt O15391 |  | 1.23 °C
AK3 (UniProt Q9UIJ7) | 0.387 °C | -0.642 °C

Target | melting temperature shift [1] | melting temperature shift [2]
UniProt P21589 | 0.67 °C | 
UniProt Q9P1Y6 | -0.307 °C | 
THYN1 (UniProt Q9P016) | 0.186 °C | -0.313 °C
ADPGK (UniProt Q9BRR6) | 0.974 °C | 0.234 °C
PABPC4 (UniProt Q13310) | -0.157 °C | -0.0152 °C
DMXL2 (UniProt Q8TDJ6) | -0.412 °C | 0.728 °C
SAMD9 (UniProt Q5K651) | -0.301 °C | 
SAMHD1 (UniProt Q9Y3Z3) | -0.953 °C | -1.27 °C
UBE2G1 (UniProt P62253) | -0.556 °C | 0.267 °C
UniProt P20337 | 1.9 °C | -1.18 °C
UniProt Q99732 | 1.8 °C | 
TBC1D15 (UniProt Q8TC07) | -0.506 °C | 0.199 °C
RRAS (UniProt P10301) | 1.48 °C | -0.454 °C
SCCPDH (UniProt Q8NBX0) | 1.62 °C | -1.59 °C
SDE2 (UniProt Q6IQ49) | -1.69 °C | -2.72 °C
LAMP2 (UniProt P13473) | -2.3 °C | 
SLK (UniProt Q9H2G2) | -0.246 °C | 0.118 °C
UniProt Q9BX79 | 4.14 °C | 
CBL (UniProt P22681) | -1.21 °C | 0.126 °C
PRKRA (UniProt O75569) | -3.16 °C | 
RNF167 (UniProt Q9H6Y7) | 2.23 °C | 1.41 °C
